Laboratory results from PMC9945777.
Results are given in words; binding and its absence hold for the method and conditions named. Some entries that bind do so weakly or less than the wild type.

T1: SsoCsm Cas7d subunit (1426) (Saccharolobus solfataricus (endogenous)) (UniProt Q97YA6)
T1 sequence: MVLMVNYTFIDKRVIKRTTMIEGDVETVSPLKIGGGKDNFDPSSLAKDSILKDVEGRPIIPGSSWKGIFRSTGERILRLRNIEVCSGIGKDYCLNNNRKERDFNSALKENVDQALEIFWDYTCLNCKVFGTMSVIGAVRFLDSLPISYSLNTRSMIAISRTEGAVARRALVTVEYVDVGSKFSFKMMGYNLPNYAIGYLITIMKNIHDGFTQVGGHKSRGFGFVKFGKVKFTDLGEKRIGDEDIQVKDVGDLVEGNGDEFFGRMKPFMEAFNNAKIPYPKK

T2: SsoCsm Cas5 subunit (1431) (Saccharolobus solfataricus (endogenous)) (UniProt Q97YA1)
T2 sequence: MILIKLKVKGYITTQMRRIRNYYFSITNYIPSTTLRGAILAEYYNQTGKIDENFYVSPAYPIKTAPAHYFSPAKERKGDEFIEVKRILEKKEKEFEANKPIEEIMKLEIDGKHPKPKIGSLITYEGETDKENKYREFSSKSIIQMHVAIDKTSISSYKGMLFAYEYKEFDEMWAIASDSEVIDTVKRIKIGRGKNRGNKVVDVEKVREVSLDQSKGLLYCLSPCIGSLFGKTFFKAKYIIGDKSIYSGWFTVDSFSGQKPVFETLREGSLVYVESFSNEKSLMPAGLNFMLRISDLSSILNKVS

T3: SsoCsm Cas7c subunit (1425) (Saccharolobus solfataricus (endogenous)) (UniProt Q97YA7)
T3 sequence: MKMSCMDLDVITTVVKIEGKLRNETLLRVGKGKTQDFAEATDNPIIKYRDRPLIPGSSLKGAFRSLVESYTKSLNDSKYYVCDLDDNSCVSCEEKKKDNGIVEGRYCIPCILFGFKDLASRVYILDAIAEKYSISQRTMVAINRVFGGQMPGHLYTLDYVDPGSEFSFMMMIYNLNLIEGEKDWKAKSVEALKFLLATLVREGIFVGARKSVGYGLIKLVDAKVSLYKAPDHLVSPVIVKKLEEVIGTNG

T4: SsoCsm Cas7a subunit (1430) (Saccharolobus solfataricus (endogenous)) (UniProt Q97YA2)
T4 sequence: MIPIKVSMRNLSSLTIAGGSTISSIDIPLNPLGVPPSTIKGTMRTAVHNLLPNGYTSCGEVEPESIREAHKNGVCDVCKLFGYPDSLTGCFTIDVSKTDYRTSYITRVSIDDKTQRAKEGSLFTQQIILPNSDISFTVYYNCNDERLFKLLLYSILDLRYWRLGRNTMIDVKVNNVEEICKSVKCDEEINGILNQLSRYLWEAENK

T5: SsoCsm Cas7b subunit (1432) (Saccharolobus solfataricus (endogenous)) (UniProt Q97YA0)
T5 sequence: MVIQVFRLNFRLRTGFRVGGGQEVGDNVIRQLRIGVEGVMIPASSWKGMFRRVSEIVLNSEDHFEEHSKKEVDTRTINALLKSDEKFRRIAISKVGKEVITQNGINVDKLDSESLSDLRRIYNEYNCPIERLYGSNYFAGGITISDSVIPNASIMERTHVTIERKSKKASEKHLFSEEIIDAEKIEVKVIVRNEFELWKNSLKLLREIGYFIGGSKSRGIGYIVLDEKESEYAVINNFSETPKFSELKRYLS


Columns and labels:
Assay in all cases: cryo-EM structure; SsoCsm complex purified from S. solfataricus with heterogeneous bound 48 nt crRNA; graphene oxide coated grids, Volta phase plate; overall resolution 3.52 Å; ColabFold models of the subunits fitted into a composite multibody map and refined; both purified
[1] = target: T1, SsoCsm Cas7d subunit (1426) (Saccharolobus solfataricus (endogenous))
[2] = target: T2, SsoCsm Cas5 subunit (1431) (Saccharolobus solfataricus (endogenous))
[3] = target: SsoCsm Cas11 subunit (1424) (Saccharolobus solfataricus (endogenous)) (UniProt Q97YA8)
[4] = target: T3, SsoCsm Cas7c subunit (1425) (Saccharolobus solfataricus (endogenous))
[5] = target: T4, SsoCsm Cas7a subunit (1430) (Saccharolobus solfataricus (endogenous))
[6] = target: T5, SsoCsm Cas7b subunit (1432) (Saccharolobus solfataricus (endogenous))

binding [1]	binding [4]	Binder	further results
binds		SsoCsm Cas7e subunit (1427) (protein, UniProt Q97YA5 1-275) MQRSPIRRSNYTPRNEKGLEGVIELQLNVVSDYLHVGSGKYDVEVMRSVSDVKRLVEDYLSGGNKRIPNNVDQYFSMVAFLMVRNKDNVVIPGSTIKGMVRSRLELSVPGSCYIVTGHSTSSSAVYKRIFNPDPNRGSDRFDVNKFPQVCPVCDLLGNMGLASRVSLSDFVMTSGKVDYVNVKGRDYEVVTKGSIFAGKVLYKSLKPVEIGMLLYGFGFVKDCNGSKVMLLGRFKFSDKRFGRVKFSLKTPIADCNKLVSDFVKQFNPRYINEEW	
		SsoCsm Cas7a subunit (1430) (protein, UniProt Q97YA2 1-206) MIPIKVSMRNLSSLTIAGGSTISSIDIPLNPLGVPPSTIKGTMRTAVHNLLPNGYTSCGEVEPESIREAHKNGVCDVCKLFGYPDSLTGCFTIDVSKTDYRTSYITRVSIDDKTQRAKEGSLFTQQIILPNSDISFTVYYNCNDERLFKLLLYSILDLRYWRLGRNTMIDVKVNNVEEICKSVKCDEEINGILNQLSRYLWEAENK	binding [2]: binds
		SsoCsm Cas11 subunit (1424) (protein, UniProt Q97YA8 1-139) MRVKHYIQREFNYSVSSQDLLDIATRIAISAIKPKPKSNKPEPYVDSSTINSLLSFLQSRRNVNELLLYIMRQAGRDEIDEETGKLLLASLKDRELKDAVNLLGYVKWVYDTLTGLKVNYNNVKGVKTFKELVNILSKV	binding [3]: binds
binds	binds	SsoCsm Cas7d subunit (1426) (protein, UniProt Q97YA6 1-281) MVLMVNYTFIDKRVIKRTTMIEGDVETVSPLKIGGGKDNFDPSSLAKDSILKDVEGRPIIPGSSWKGIFRSTGERILRLRNIEVCSGIGKDYCLNNNRKERDFNSALKENVDQALEIFWDYTCLNCKVFGTMSVIGAVRFLDSLPISYSLNTRSMIAISRTEGAVARRALVTVEYVDVGSKFSFKMMGYNLPNYAIGYLITIMKNIHDGFTQVGGHKSRGFGFVKFGKVKFTDLGEKRIGDEDIQVKDVGDLVEGNGDEFFGRMKPFMEAFNNAKIPYPKK	
		SsoCsm Cas7b subunit (1432) (protein, UniProt Q97YA0 1-252) MVIQVFRLNFRLRTGFRVGGGQEVGDNVIRQLRIGVEGVMIPASSWKGMFRRVSEIVLNSEDHFEEHSKKEVDTRTINALLKSDEKFRRIAISKVGKEVITQNGINVDKLDSESLSDLRRIYNEYNCPIERLYGSNYFAGGITISDSVIPNASIMERTHVTIERKSKKASEKHLFSEEIIDAEKIEVKVIVRNEFELWKNSLKLLREIGYFIGGSKSRGIGYIVLDEKESEYAVINNFSETPKFSELKRYLS	binding [5]: binds
	binds	SsoCsm Cas7c subunit (1425) (protein, UniProt Q97YA7 1-250) MKMSCMDLDVITTVVKIEGKLRNETLLRVGKGKTQDFAEATDNPIIKYRDRPLIPGSSLKGAFRSLVESYTKSLNDSKYYVCDLDDNSCVSCEEKKKDNGIVEGRYCIPCILFGFKDLASRVYILDAIAEKYSISQRTMVAINRVFGGQMPGHLYTLDYVDPGSEFSFMMMIYNLNLIEGEKDWKAKSVEALKFLLATLVREGIFVGARKSVGYGLIKLVDAKVSLYKAPDHLVSPVIVKKLEEVIGTNG	binding [6]: binds
